Source: US20170355773A1
Results are given in words; binding and its absence hold for the method and conditions named. Some entries that bind do so weakly or less than the wild type.

Molecular target: T1, recombinant human TNFRSF25 (human) (UniProt Q93038)
T1 sequence: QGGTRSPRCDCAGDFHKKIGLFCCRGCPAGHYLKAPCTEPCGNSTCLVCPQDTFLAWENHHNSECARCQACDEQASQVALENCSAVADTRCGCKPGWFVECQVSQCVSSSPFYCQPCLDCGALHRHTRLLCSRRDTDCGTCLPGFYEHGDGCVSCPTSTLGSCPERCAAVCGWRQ
Experiment: binding with or without the parental antibody (FIG. 9)

B1: hTL1A-Ig (Fc fusion, human, UniProt O95150 72-251, looked up, not shown: a dimerising Fc or GST)
chain: LKGQEFAPSHQQVYAPLRADGDKPRAHLTVVRQTPTQHFKNQFPALHWEHELGLAFTKNRMNYTNKFLLIPESGDYFIYSQVTFRGMTSECSEIRQAGRPNKPDSITVVITKVTDSYPEPTQLLMGTKSVCEVGSNWFQPIYLGAMFSLQEGDKLMVNVSDISLVDYTKEDKTFFGAFLL
B1 was tested, and the binding was “binds”.
